PubChem BioAssay AID743454 | Peter MacCallum Cancer Centre – 2014

Assay: 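Genes whose loss kills vorinostat-resistant colon cancer cells under vorinostat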 (primary screen)
Cells: human HCT116-VR colon cancer cells, selected for vorinostat resistance
Reagent: siRNA pool against human genes, 40 nM siRNA pool
Timing: vorinostat for 24 h, read-out about 72 h after transfection
Conditions: vorinostat at 2.5 µM final
Measured: 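Two measures, CellTiter-Fluor viability and luminescent caspase 3/7 activity, each as fold change against same-plate mock wells, mean of duplicates, then screen-wide robust z-score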
Scale: viability robust z-score: higher = more viable cells than screen typical; caspase robust z-score: higher = more caspase 3/7 activity than screen typical
Active means: 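a knock-down is a hit when classed RV1 or RV2 for lowered viability, or CA1 or CA2 for caspase activation; those lethal without drug were dropped; hits were retested singly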
In all, the deposit lists about 18,000 reagents; shown is an unselected part. Of all reagents, 450 (2.5%) are marked active. 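Single biological run; no consistent viability z cut-off exists, so the class columns, not z-scores, define the calls.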

Target gene | viability hit class | caspase hit class | viability robust z-score | caspase robust z-score | Outcome
PIP4K2A | no change | no change | 0.97 | 0.5 | inactive
DKK3 | no change | no change | -1 | 2.31 | inactive
ACSBG1 | no change | no change | 0.48 | -0.86 | inactive
CEP85 | no change | no change | -0.48 | 1.35 | inactive
AQP10 | no change | no change | 0.16 | 1.02 | inactive
SLC2A12 | no change | no change | -0.21 | -0.43 | inactive
CXXC4 | no change | no change | 0 | -0.48 | inactive
OPRK1 | no change | no change | -1.54 | -0.32 | inactive
TGM1 | no change | no change | -0.09 | 3.25 | inactive
RASD1 | no change | no change | 0.18 | 0.08 | inactive
OPRM1 | no change | no change | 0.94 | -0.86 | inactive
INPP1 | no change | no change | 0.98 | 0.57 | inactive
VPS37C | no change | no change | -1.22 | 0.86 | inactive
HRK | no change | no change | -4.83 | 2.25 | inactive
XKR4 | no change | no change | 0.68 | -0.18 | inactive
SHD | no change | no change | -0.86 | 0.92 | inactive
H2AX | no change | no change | -1.99 | 4.47 | inactive
ALB | no change | no change | -0.11 | 1.7 | inactive
OPN1MW | no change | no change | -0.73 | -0.62 | inactive
GIPC3 | no change | no change | 0.84 | -1.04 | inactive
ABI3 | no change | no change | 0.36 | -0.16 | inactive
BCDIN3D | no change | no change | 0.66 | -0.08 | inactive
DDX59 | no change | no change | 1.09 | -0.2 | inactive
CCR1 | no change | no change | -0.06 | -0.66 | inactive
SHANK3 | no change | no change | -0.32 | 1.26 | inactive
KLRB1 | no change | no change | 2.31 | -0.6 | inactive
SRR | no change | no change | 1.04 | 0.43 | inactive
RASGEF1A | no change | no change | -0.28 | -0.18 | inactive
NUDT5 | no change | no change | 1.7 | 1.43 | inactive
VMA21 | no change | no change | 0.49 | -0.05 | inactive
PIGP | no change | no change | 0.01 | 1.33 | inactive
SIRT6 | no change | no change | 0.05 | 0.68 | inactive
ZNF280B | no change | no change | -0.43 | -0.94 | inactive
COPS8 | no change | no change | 0.15 | 0.91 | inactive
CASQ2 | no change | no change | 0.22 | 0.24 | inactive

In a second layout: entries from further up
PIP4K2A: viability hit class = no change; caspase hit class = no change; viability robust z-score = 0.97; caspase robust z-score = 0.5; Outcome = inactive
DKK3: viability hit class = no change; caspase hit class = no change; viability robust z-score = -1; caspase robust z-score = 2.31; Outcome = inactive
ACSBG1: viability hit class = no change; caspase hit class = no change; viability robust z-score = 0.48; caspase robust z-score = -0.86; Outcome = inactive

Continued.
Target gene | viability hit class | caspase hit class | viability robust z-score | caspase robust z-score | Outcome
CER1 | no change | no change | -0.22 | -0.5 | inactive
ASRGL1 | no change | no change | 1.15 | -0.04 | inactive
FAM168A | no change | no change | -0.7 | 0.08 | inactive
HAVCR2 | no change | no change | -0.7 | 0.57 | inactive
BRD4 | no change | no change | -0.5 | 2.96 | inactive
SPATA31D1 | no change | no change | -1.32 | 0.59 | inactive
SLC7A10 | no change | no change | 0.7 | 0 | inactive
MED18 | no change | no change | 0.08 | 0 | inactive
COA8 | no change | no change | -0.48 | 0.31 | inactive
KLK8 | no change | no change | 1.07 | -0.72 | inactive
GBP2 | no change | no change | 0.59 | -0.22 | inactive
FCN3 | no change | no change | 0.86 | 1.25 | inactive
KRCC1 | no change | no change | -0.08 | 0.42 | inactive
FRK | no change | no change | -1.16 | 0.28 | inactive
HOXC5 | no change | no change | -2.94 | 0.87 | inactive
RAB40AL | no change | no change | -0.02 | -0.36 | inactive
CYTL1 | no change | no change | -0.4 | -0.38 | inactive
SLC2A10 | no change | no change | 0.43 | 0.7 | inactive
PKMYT1 | no change | no change | 1.58 | -0.2 | inactive
TMC7 | no change | no change | -0.06 | 1.36 | inactive
METTL6 | no change | no change | 1.1 | -0.74 | inactive
CDHR4 | no change | no change | -2.29 | 1.18 | inactive
